Library screen at single concentrations

By UniProt entry, the sequences of proteins in these tests, tags left out.
UniProt I6X8D2, whole entry: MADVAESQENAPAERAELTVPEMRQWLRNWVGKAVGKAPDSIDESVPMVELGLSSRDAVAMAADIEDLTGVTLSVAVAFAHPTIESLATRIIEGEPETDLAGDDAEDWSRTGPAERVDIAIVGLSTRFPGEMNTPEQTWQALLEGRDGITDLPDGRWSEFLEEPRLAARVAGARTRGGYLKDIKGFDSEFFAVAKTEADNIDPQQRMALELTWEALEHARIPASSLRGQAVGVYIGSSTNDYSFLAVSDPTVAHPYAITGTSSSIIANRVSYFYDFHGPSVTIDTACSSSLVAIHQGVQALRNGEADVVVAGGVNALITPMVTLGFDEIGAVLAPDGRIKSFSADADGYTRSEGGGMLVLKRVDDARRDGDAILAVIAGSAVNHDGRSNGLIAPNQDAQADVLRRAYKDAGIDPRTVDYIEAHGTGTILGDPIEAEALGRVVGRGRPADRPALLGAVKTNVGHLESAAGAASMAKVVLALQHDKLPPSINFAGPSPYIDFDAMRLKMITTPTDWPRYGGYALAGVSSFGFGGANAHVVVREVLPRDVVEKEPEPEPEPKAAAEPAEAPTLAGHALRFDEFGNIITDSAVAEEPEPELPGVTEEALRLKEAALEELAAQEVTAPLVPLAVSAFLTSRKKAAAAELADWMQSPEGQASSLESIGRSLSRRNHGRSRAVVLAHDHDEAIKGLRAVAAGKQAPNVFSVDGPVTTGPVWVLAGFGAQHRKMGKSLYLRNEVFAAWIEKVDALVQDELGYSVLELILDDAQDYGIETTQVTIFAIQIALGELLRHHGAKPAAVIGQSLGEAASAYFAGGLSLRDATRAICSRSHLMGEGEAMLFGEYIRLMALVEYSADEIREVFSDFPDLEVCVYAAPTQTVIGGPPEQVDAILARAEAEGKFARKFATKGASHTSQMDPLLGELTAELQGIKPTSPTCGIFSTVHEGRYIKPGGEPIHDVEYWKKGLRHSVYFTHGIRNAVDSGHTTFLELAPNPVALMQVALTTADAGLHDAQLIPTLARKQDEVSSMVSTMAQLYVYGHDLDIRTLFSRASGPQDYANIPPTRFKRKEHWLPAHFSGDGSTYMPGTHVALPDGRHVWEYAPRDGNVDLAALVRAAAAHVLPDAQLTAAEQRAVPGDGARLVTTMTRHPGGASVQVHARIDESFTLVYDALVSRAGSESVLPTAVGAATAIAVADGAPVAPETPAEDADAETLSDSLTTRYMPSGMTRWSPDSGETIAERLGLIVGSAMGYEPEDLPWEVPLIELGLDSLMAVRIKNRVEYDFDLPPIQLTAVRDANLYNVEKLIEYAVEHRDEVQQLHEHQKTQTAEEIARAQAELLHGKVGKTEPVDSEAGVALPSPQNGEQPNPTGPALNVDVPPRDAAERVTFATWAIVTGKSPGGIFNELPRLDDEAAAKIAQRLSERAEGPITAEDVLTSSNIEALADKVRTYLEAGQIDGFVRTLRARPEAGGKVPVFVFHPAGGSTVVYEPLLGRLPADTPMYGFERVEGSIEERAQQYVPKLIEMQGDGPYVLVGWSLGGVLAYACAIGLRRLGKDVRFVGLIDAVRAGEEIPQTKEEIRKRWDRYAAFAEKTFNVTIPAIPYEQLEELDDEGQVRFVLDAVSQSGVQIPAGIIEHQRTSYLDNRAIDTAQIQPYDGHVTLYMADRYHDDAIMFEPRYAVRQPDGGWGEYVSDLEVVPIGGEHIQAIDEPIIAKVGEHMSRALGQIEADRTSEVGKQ
UniProt P9WNZ1, whole entry: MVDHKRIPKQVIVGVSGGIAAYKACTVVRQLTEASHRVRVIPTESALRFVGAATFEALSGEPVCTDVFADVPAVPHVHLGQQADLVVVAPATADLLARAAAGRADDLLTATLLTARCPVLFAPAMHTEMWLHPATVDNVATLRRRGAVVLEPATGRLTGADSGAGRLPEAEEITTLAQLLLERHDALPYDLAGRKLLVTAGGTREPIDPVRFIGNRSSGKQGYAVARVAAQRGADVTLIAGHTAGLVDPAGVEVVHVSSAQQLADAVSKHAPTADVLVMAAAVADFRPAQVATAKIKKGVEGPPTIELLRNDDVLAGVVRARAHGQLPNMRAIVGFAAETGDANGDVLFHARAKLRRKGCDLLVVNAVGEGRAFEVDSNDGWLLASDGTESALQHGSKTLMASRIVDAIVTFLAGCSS
UniProt P9WPC5, whole entry: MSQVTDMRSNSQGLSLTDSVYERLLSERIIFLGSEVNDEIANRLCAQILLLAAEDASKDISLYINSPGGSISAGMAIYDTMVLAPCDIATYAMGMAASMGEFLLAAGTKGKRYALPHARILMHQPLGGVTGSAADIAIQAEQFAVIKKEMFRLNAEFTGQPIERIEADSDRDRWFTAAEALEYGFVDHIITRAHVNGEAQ
UniProt P9WPC3, whole entry partner: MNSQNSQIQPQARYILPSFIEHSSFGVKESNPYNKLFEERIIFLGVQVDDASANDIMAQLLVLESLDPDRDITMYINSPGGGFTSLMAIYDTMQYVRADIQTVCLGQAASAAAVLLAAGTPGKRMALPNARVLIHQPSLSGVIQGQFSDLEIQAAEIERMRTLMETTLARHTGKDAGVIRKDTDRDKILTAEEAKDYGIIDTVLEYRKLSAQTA
UniProt P9WFT3, whole entry: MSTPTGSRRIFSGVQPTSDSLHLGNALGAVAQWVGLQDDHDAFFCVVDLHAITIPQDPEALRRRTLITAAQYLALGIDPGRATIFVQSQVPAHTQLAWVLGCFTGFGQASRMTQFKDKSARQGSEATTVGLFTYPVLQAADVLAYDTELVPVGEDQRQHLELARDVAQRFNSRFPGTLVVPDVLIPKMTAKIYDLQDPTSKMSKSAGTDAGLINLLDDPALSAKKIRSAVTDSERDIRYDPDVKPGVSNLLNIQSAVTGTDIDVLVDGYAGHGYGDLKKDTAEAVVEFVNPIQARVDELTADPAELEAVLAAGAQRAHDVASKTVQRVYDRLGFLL

Measurements from “University of Dundee, Small-Polar-MMV Screening Library” (2021), ChEMBL document CHEMBL3988442.

Pks13 thioesterase: 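Enzyme assay of the thioesterase domain of polyketide synthase 13; the read-out is not stated. Target: Polyketide synthase Pks13, Mycobacterium tuberculosis (UniProt I6X8D2). Compounds at 30 µM. The record gives no direction; the compounds picked for IC50 retests had high values, so higher reads as stronger inhibition. About 67,000 compounds were tested under these conditions; 0.46% (about 300) showed 50% or more at least once.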
Toxoplasma: 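Assay of Toxoplasma gondii numbers, read through their beta-galactosidase reporter with a colour substrate. Compounds at 10 µM. The record gives no direction; the compounds picked for IC50 retests had high values, so higher reads as fewer parasites. Of about 67,000 compounds tested this way, about 260 (0.38%) reached 50% or more in at least one test.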
CoaBC: 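Enzyme assay of CoaBC with a phosphate dye (Biomol Green) read at 650 nm. Target: Coenzyme A biosynthesis protein CoaBC, Mycobacterium tuberculosis (UniProt P9WNZ1). Compounds at 30 µM. Direction is inferred from only a few compounds that gave an IC50; most scored high, so higher reads as stronger inhibition. Most strong results did not repeat in a second test. Of about 67,000 compounds tested this way, about 40 (0.06%) reached 50% or more in at least one test.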
ClpP1P2: 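ClpP1P2, Mycobacterium tuberculosis (UniProt P9WPC5 and UniProt P9WPC3). Protease assay of ClpP1P2, read by the AMC dye that it sets free. Compounds at 50 µM. Higher reads as stronger inhibition, judged from the few compounds that gave an IC50. Most other retested compounds had strongly negative values. About 69,000 compounds were tested under these conditions; 0.015% (about 10) showed 50% or more at least once.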
Leishmania in macrophages: 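Cell assay of Leishmania donovani living inside macrophages; the read-out is not stated. Concentration: 30 µM. The record gives no direction; compounds that gave an IC50 in retests scored well above the rest, so higher reads as stronger inhibition. Of about 69,000 compounds tested this way, about 1,000 (1.5%) reached 50% or more in at least one test.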
MtTrpRS: 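Enzyme assay of tryptophanyl-tRNA synthetase; the read-out is not stated. Target: Tryptophan-tRNA ligase, Mycobacterium tuberculosis (UniProt P9WFT3). Concentration: 10 µM. Higher most likely means stronger inhibition; the record gives no direction and few retests gave an IC50. Size under these conditions: about 65,000 compounds, about 64 of them at 50% or above in at least one test.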

Values are the deposited “Percent Effect”, in %. The controls that fix the scale are not given in the record; negative values are as filed. The compounds are a random part of those screened. Two or more numbers in one place are separate tests of the same structure; such repeats can differ widely. A dash means the value is not listed here; it may have been measured.

| # | compound | Pks13 thioesterase | Toxoplasma | CoaBC | ClpP1P2 | Leishmania in macrophages | MtTrpRS |
|---|---|---|---|---|---|---|---|
| 1 | `O=C(c1cc(-n2cccn2)ccn1)N1CCOc2ccncc21` | -6.076% | 0.9815% | -3.024% | -6.833% | -20.73% | -3.431% |
| 2 | `CC(Oc1ccccc1C(F)(F)F)C(=O)NS(=O)(=O)C(C)C` (stereo unspecified) | -19.27% | -2.935% | -6.004% | -4.124% | 12.13% | 0.5629% |
| 3 | `Cc1nc2c(c(N3CCC4(CCCNC4=O)C3)n1)CCC2` (stereo unspecified) | -24.86% | 5.865% | 9.046% | -12.55% | 4.057% | -0.5961% |
| 4 | `Cc1cc(N2CCCC2)c(C#N)c(C)n1` | -23% | -2.841% | 3.113% | -4.925% | -7.552% | 7.217% |
| 5 | `COCCn1c(=O)n(Cc2ccc(Cl)s2)c2cc(C(=O)O)ccc21` | 3.914% | 20.36% | 1.72% | -21.64% | 16.83% | 0.9709% |
| 6 | `CCC(CC)NC(=O)CN1CCN(C(=O)N(C)C)CC1` | -9.982% | -6.967% | 6.112% | 13.29% | -281% | -1.639% |
| 7 | `CCn1ccnc1CN1CCCC1c1noc(C2CC2)n1` (stereo unspecified) | -12.2% | -5.159% | 1.818% | -13.02% | -25.58% | 22.06% |
| 8 | `O=C(NCCn1ccnc1)c1cccc(Br)c1` | -47.05% | 3.19% | - | 10.88% | 13.59% | 3.612% |
| 9 | `COc1cccc(CN2CCc3nc4ccsc4c(=O)n3CC2)c1` | -23.46% | - | -2.354% | -0.1113% | - | - |
| 10 | `Fc1ccc(CN2CCc3ncnc(C4CCOC4)c3CC2)cc1.O=C(O)C(F)(F)F` (stereo unspecified) | - | 7.266% | - | - | -1.701% | - |
| 11 | `COc1ccc(OC)c(-n2cnnc2CCN)c1` | -34.69% | 10.1% | 14.72% | 8.982% | 14.8% | 1.211% |
| 12 | `CC(=O)N[C@@H]1CN(C(=O)c2ccc[nH]2)C[C@H]1c1ccc(C)o1` | -7.188% | -7.439% | 0.4808% | -3.781% | 9.012% | 1.142% |
| 13 | `CC(C)NC(=O)c1n[nH]c(-n2cnnc2)n1` | -19.13% | 5.619% | 4.441% | 6.399% | -5.153% | 6.231% |
| 14 | `O=C(c1cnccn1)N1CCN(Cc2csc(-c3ccccc3)n2)CC1` | -14.05% | -4.631% | 3.035% | -4.284% | -7.572% | -6.511% |
| 15 | `Cc1ccccc1CSc1nc(N)cc(N2CCCC(O)C2)n1` (stereo unspecified) | -18.74% | -6.64% | -1.008% | 6.93% | 5.221% | 7.871% |
| 16 | `Cc1nc(CN2CCc3ncnc(C)c3CC2)cs1` | -27.68% | - | 5.141% | 8.539% | - | -0.08719% |
| 17 | `COCCN(C)C(C(=O)O)c1ccc2ccccc2c1` (stereo unspecified) | 4.908% | 4.956% | -1.603% | -11.8% | 6.466% | -3.904% |
| 18 | `COc1ccc(OCC(=O)NS(=O)(=O)c2cc(C)ccc2C)cc1` | 8.299% | 2.406% | 2.947% | 2.377% | -1.079% | -2.593% |
| 19 | `CN(C)Cc1cnc(C2CN(C(=O)c3ccccc3Cl)CCO2)[nH]1` (stereo unspecified) | -0.4778% | -0.7512% | 3.883% | -1.822% | -14.6% | 0.7752% |
| 20 | `CN(Cc1ccccc1)C(=O)CN1CCCCC1Cn1cncn1` (stereo unspecified) | -26.25% | -2.512% | 4.507% | 0.3273% | 20.21% | 3.722% |
| 21 | `O=C1COC[C@H]([C@H](O)c2ccc(NC(=O)c3cccnc3)cc2)N1` | -26.38% | - | 20.11% and 21.41% | -10.22% | - | -1.907% |
| 22 | `CN1CCC(c2nc3ccc(-c4cccc(F)c4)cn3n2)CC1` | 4.405% | - | 4% | -11.98% | - | - |
| 23 | `c1ccc(CN2CCC(c3nccnc3-n3ccnc3)CC2)cc1` | -10.15% | 16.82% | 3.594% | 11.67% | 2.068% | - |
| 24 | `COc1c(CNC2(c3noc(C)n3)CCC2)c(C(C)C)nn1C` | 1.465% | - | -5.492% | 11.6% | - | 5.569% |
| 25 | `NC(=O)c1ccc(C(=O)N2CCCCC2C2OCCO2)cc1` (stereo unspecified) | -13.13% | 3.904% | 5.305% | 6.651% | -7.972% | 2.593% |
| 26 | `COc1ccc(CNC(=O)NCC2CCOC2)c(C(F)(F)F)c1` (stereo unspecified) | -10.85% | -9.596% | -1.266% | 0.02731% | -11.06% | -0.1896% |
| 27 | `CCCC(=O)N(Cc1ccncc1)C(C)CC` (stereo unspecified) | 7.654% | 11.15% | 2.683% | -20.32% | 8.829% | 2.107% |
| 28 | `COc1cccc(COC(C)C(=O)NCc2nnc3n2CCC3)c1` (stereo unspecified) | -6.971% | 0.6772% | 0.9569% | -5.506% | 0.5766% | -4.951% |
| 29 | `COCCCn1cnnc1CNC(=O)c1[nH]c2c(C)cc(C)cc2c1C` | -16.24% | -9.732% | 6.813% | 3.153% | 2.75% | 4.581% |
| 30 | `O=C(O)C1CCCN1c1nc(C2CC2)cc(C(F)(F)F)n1` (stereo unspecified) | 2.962% | -35.69% | -7.944% | -5.516% | 25.51% | -4.665% |
| 31 | `CO[C@@H]1CC[C@@H](NC(=O)c2ccc(OCCN3CCCC3)cc2)[C@H]1O` | 10.85% | 8.015% | 0.4785% | 2.047% | 9.239% | -3.906% |
| 32 | `O=C(O)C(F)(F)F.O=C(c1ccccc1)N1CCC[C@]2(C[C@@H](OCc3ccccn3)CO2)C1` | - | -21.84% | - | - | 25.56% | - |
| 33 | `[H][C@]12CC[C@]([H])(CN(Cc3nc4ccccc4n3C)C1)N(CCOC)C2` | - | -13.8% | - | - | 39.08% | - |
| 34 | `O=C(Cc1ccc2c(c1)CCCC2)N[C@@H]1CC[C@@H](n2ccnc2)[C@@H]1O` | -8.079% | 13.01% | -0.9685% | -1.699% | -3.326% and -6.921% | - |
| 35 | `O=C(Nc1ccc(-c2cnc(NCCO)nc2)cc1)[C@@H]1CCCCN1` | 17.41% | 6.411% | 2.771% | 0.803% | 8.042% and 13.47% | - |
| 36 | `O=C(O)C(F)(F)F.[H][C@@]12CN(Cc3ccccn3)C[C@]1([H])CN(C(=O)c1cccc(F)c1)C2` | - | -11.28% | - | - | 3.646% | - |
| 37 | `Cc1cccc(C2CCCN(C(=O)CN3CCC(C(N)=O)CC3)C2)c1` (stereo unspecified) | -29.93% | 5.192% | -1.951% | -0.1419% | 27.9% | 2.547% |
| 38 | `NC(=O)C1CCN(CC(=O)NCCc2c(F)cccc2F)CC1` | -35.26% | -12.55% | 8.026% | 0.7883% | 9.414% | 2.812% |
| 39 | `CN1CCC(CO[C@H]2CN(C(=O)c3cccn3C)[C@@H]3COC[C@H]23)CC1` | -0.02527% | - | 4.433% | -8.586% | - | -4.497% |
| 40 | `Cc1nc(C2CN(Cc3scnc3C)CCO2)cc(N(C)C)n1` (stereo unspecified) | -3.489% | 18.59% | 3.585% | -18.16% | 15.17% | 4.078% |
| 41 | `O=C(NCc1csc2ccccc12)NCC1(O)CCSC1` (stereo unspecified) | -5.938% | -2.453% | -2.174% | 3.287% | -37.85% | -6.364% |
| 42 | `CCOc1ccc(C(C)Nc2ncnc3c2CCNC3)cc1OCC` (stereo unspecified) | - | - | 1.845% | -8.151% | 19.33% | -2.91% |
| 43 | `CCCn1nc(C)c(-c2cncn2CCN(C)C2CCCC2)c1C.Cl` | - | 8.984% | - | - | 42.92% | - |
| 44 | `COCCOc1ccc(C(=O)N2CCCC(n3cncn3)C2)cn1` (stereo unspecified) | -44.75% | -15.49% | 0.5263% | -11.46% | -14.09% | 10.43% |
| 45 | `CCOCC1c2c(ncn2C)CCN1C(=O)c1cscn1` (stereo unspecified) | -8.787% | -3.401% | 0.6188% | 11.31% | 44.64% | - |
| 46 | `CC[C@@H]1N(Cc2ccc(C)o2)CCC[C@]12CCC(=O)N2CCOC.O=C(O)C(F)(F)F` | - | 21.98% | - | - | -2.957% | - |
| 47 | `CCNc1ccnc(CN2CCCC2C(=O)Nc2nccs2)c1` (stereo unspecified) | -10.27% | 14.32% | -14.79% | -5.908% | 18.92% | -1.33% |
| 48 | `CC(C)c1nc(N2CCC(N3CCCC(O)C3)CC2)c2cnn(C)c2n1` (stereo unspecified) | -9.148% | -18.27% | 9.855% | -8.867% | -13.28% | 0.8834% |
| 49 | `COCCNC(=O)NC1(c2nc(-c3ccncc3)no2)CCCCC1` | -6.01% | -13.77% | -1.903% | -2.941% | -5.227% and -8.656% | -2.204% |
| 50 | `Cl.NC(=O)CCc1cccc(C2CCNCC2)n1` | - | - | - | - | 8.39% | - |
| 51 | `Cc1cc(F)ccc1-c1ccccc1CC1CNCCNC1=O` (stereo unspecified) | 16.39% | - | 0.9864% | -7.531% | - | -4.222% |
| 52 | `CCN(Cc1cccc(NC(=O)COC)c1)C(C)=O` | -7.704% | 9.296% | -2.657% | 17.23% | -11.73% | -2.727% |
| 53 | `Cc1cc(=O)n(CC(=O)NC2CCCCC2)c2ccccc12` | -29.57% | 1.256% | - | -0.4456% | 7.881% | -3.096% |

The last 5 entries again:

compound,Pks13 thioesterase,Toxoplasma,CoaBC,ClpP1P2,Leishmania in macrophages,MtTrpRS
COCCNC(=O)NC1(c2nc(-c3ccncc3)no2)CCCCC1,-6.01%,-13.77%,-1.903%,-2.941%,-5.227% and -8.656%,-2.204%
Cl.NC(=O)CCc1cccc(C2CCNCC2)n1,-,-,-,-,8.39%,-
Cc1cc(F)ccc1-c1ccccc1CC1CNCCNC1=O (stereo unspecified),16.39%,-,0.9864%,-7.531%,-,-4.222%
CCN(Cc1cccc(NC(=O)COC)c1)C(C)=O,-7.704%,9.296%,-2.657%,17.23%,-11.73%,-2.727%
Cc1cc(=O)n(CC(=O)NC2CCCCC2)c2ccccc12,-29.57%,1.256%,-,-0.4456%,7.881%,-3.096%